In patent US20150376238A1 (University of Washington, published 2015):
These are yes or no findings as the source states them, for the method shown. Some entries that bind do so weakly or less than the wild type.

Biological target: H3 hemagglutinin (A/Hong Kong/1/1968) (Influenza A virus A/Hong Kong/1/1968 (H3N2)) (UniProt Q91MA7)
Experiment: yeast surface display titration

B1: SB24solo2 (designed binder)
chain: ASGMLAISMDTDKISNSFEDCKYFLIELKSAGWTNTIFNDESGKEEIVKMGVDAIICKNISEENYKKFSKKIEIYHAEGDDVNKNISLFLEGELSKISNP
With B1 the binding was “binds”.
